{
  "sequences": {"note": "Sequences of proteins named here, by UniProt entry; tags and fusion partners are left off.", "UniProt P15884": "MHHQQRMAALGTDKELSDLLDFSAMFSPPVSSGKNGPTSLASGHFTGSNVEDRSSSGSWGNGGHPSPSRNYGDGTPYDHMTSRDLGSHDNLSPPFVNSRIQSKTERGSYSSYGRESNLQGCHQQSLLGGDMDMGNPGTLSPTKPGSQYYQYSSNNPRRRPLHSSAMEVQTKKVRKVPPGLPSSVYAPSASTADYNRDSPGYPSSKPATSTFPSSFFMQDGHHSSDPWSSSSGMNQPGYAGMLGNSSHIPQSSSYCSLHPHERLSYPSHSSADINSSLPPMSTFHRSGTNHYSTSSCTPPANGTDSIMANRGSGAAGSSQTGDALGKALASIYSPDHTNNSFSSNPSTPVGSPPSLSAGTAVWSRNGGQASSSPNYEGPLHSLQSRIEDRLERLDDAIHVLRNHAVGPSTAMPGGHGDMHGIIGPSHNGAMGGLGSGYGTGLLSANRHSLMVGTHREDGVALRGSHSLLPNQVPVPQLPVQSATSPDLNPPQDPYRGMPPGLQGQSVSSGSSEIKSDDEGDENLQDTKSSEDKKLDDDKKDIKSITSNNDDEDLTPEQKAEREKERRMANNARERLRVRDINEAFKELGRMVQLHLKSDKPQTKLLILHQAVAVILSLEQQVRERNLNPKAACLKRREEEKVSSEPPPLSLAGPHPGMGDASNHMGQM"},
  "source": "paper PMC8178337",
  "biological_target": "T1, Runt-related transcription factor 1 (Runx1t1) (human (endogenous in 253 J and J82)) (UniProt Q06455)",
  "T1 sequence": "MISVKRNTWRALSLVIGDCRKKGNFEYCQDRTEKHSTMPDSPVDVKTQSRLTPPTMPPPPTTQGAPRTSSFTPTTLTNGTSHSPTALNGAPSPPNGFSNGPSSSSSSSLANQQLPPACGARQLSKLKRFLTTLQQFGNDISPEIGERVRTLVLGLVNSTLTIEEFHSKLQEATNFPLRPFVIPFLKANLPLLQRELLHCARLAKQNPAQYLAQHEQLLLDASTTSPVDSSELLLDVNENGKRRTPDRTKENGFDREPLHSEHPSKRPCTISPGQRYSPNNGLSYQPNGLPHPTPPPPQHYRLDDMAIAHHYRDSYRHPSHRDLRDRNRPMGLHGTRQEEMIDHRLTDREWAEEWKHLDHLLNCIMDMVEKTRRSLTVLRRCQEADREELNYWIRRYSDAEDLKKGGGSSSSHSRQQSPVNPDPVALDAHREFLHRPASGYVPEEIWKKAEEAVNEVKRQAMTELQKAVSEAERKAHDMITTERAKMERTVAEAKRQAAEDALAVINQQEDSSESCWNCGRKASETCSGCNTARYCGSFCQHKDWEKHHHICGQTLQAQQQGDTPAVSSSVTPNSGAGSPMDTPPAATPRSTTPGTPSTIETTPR",
  "experiment": "affinity purification with mass spectrometry; CoIP-MS with an anti-Runx1t1 antibody in J82 cells, with and without RBM24 overexpression",
  "note": "These are yes or no findings as the source states them, for the method shown. In cells and extracts the contact can be indirect. Here binding means that the protein was enriched with, or labelled near, the bait; the list need not be complete.",
  "data": [
    {"substance": "Transcription factor 4 (TCF4) (from UniProt P15884 1-667)", "values": [
      {"measurement": "binding", "result": "binds"}
    ]}
  ]
}
